Results from the supplement of paper PMC3334620.
Whole data set: some 33,000 sequences, median “E-score (-0.5 to 0.5)” near -0.016, cut for the highest 2% near 0.3. The list shows a part of the results.

Biological target: T1, Yer184c (UniProt P39961)
T1 sequence: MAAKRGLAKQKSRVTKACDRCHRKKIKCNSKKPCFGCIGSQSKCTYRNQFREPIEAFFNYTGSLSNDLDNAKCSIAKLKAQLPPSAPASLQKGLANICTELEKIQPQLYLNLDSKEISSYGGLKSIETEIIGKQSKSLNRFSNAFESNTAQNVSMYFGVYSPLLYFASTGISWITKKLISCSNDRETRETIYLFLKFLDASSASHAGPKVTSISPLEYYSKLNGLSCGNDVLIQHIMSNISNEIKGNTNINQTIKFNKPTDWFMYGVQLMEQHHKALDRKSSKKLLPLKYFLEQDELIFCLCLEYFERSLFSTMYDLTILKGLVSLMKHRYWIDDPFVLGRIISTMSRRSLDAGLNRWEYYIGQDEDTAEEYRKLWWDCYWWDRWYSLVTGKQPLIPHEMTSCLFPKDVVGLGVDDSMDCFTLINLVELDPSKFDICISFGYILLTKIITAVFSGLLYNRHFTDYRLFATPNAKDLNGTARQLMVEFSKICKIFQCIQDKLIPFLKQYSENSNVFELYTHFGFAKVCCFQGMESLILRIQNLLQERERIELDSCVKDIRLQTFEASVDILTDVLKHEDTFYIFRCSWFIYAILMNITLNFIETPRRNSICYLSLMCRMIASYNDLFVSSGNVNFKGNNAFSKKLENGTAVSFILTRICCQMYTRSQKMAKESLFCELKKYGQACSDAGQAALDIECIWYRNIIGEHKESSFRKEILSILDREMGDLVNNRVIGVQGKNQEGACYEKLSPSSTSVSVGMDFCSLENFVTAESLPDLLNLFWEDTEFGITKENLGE
Experiment: PBM E-score (8-mer binding enrichment) (E-score (-0.5 to 0.5)); higher = stronger / more preferred TF binding
Details: protein concentration: 100 nM; construct: GST-full length
Procedure: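 Universal 'all 10-mer' protein binding microarrays (Agilent AMADID 015681) probed with GST-tagged S. cerevisiae TFs (full-length or DBD) made by in vitro transcription/translation (PURExpress), about 100-200 nM. Bound TF was detected with fluorescent anti-GST. Each ungapped 8-mer (which stands for itself and its reverse complement) is scored by the PBM enrichment score (E-score), a modified Wilcoxon-Mann-Whitney statistic from -0.5 to +0.5, computed with the Universal PBM Analysis Suite. Scale: above 0.35 generally sequence-specific binding.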

Sequence | PBM E-score
ACATACAC | 0.118
AGGGACTA | -0.182
ATGGTGAC | -0.171
AATGATGG | 0.0279
CAGAACTC | -0.0755
AATTCCCG | 0.272
CTTCATCA | 0.0503
CGATAGGC | -0.0653
GCGTGCGA | -0.0414
GTGCTGCA | -0.0801
GGAGGAAA | 0.0452
CCCGGAGA | 0.222
CGTGAAAA | 0.172
GCTGACGA | -0.0611
ATCAGGGC | -0.202
GAAAGCGC | -0.0187
GAACCTTC | -0.00158
GTAAAAGA | 0.0635
ACCAAAGT | -0.0125
AACCAGTG | -0.251
CGAAGCAG | -0.0198
TTCCTCAA | 0.0708

Sequence | PBM E-score
ACAGCTGG | -0.219
CGTGTACA | 0.0108
CACTTTAA | 0.0546
CCTAGACG | -0.0921
CTAATTTA | 0.281
CACTGCAG | -0.0351
AGATTCGC | 0.0489
ATACCACG | 0.191
ATGGCGTG | -0.0753
ACCAGCTC | -0.141
CGTCAACG | -0.0231
ACATCGCG | -0.138
TAAGTTAA | -0.00427
GATTGTGC | -0.0711
CCTGCCGC | -0.0625
TCGGTAAA | 0.296
ATCCTTTG | 0.0204
CCGCCGCG | 0.172
ACCTTTTA | -0.102
GATCGGCC | 0.272
GTATGCAC | -0.0367
CACTTTTC | 0.0831

Sequence | PBM E-score
ATGCCCGG | 0.237
AAAATCCT | 0.0606
CCTGGATA | -0.227
GAGTACTC | -0.0763
GCAGTGTA | 0.0357
AACACTCA | 0.0828
AGGAGCCA | -0.154
TGGTGGAA | -0.00394
ACAGGCCG | 0.0481
ACTGACGA | 0.00463
AGATACTC | -0.119
AGTCTCCG | 0.27
AAGGACAT | -0.00966
GCTGCCAC | -0.0222
GAAAAATA | 0.221
CAGATGCA | -0.31
AACCACGA | -0.137
CATAACCC | -0.158
CTTGCAAA | 0.192
GAATTGTA | 0.0798
AGAAACAA | 0.209
CCGTGGCG | 0.0318

Sequence | PBM E-score
CATGGCGG | -0.0415
ATACAGAA | 0.261
CCTTAAAG | -0.00178
AGCTGGTG | -0.0511
CATTTAGG | -0.143
GCTTCGGA | 0.304
GATTATGA | 0.148
CAAGTTCA | 0.177
CCGTTCGA | 0.0966
CGCGGCTC | 0.226
CTGCAGAA | 0.0889
GTGTTATA | 0.239
CCAAAAAG | 0.128
ACCACGGG | -0.0792
AATTTTAC | 0.176
ACATTAAG | 0.132
CCCGCCGA | 0.193
ACCGGTTA | 0.26
GTTGGGTA | -0.18
GGAGGCTA | -0.172
CCCAAGGC | -0.091
ATAATCGC | 0.0649

Sequence | PBM E-score
TCCTTGAA | -0.0767
AGGGTTCG | -0.198
TATTGACA | -0.0684
ACGGATAT | 0.339
CCAGGTCC | -0.182
CTCTCACC | 0.0733
ACAGCCCT | -0.155
GTTATCTA | -0.0983
CGACATCG | -0.024
GACCAGCA | -0.157
AACACCGT | -0.0129
AATTAGCT | 0.0419
GCCCCCCC | -0.402
AGCGCGAA | 0.191
CTGCGGAA | 0.0709
GATATTCA | 0.0204
CAAGCATA | 0.026
AGGGGTAT | -0.33
CTATAATA | 0.145
GTCGCGGA | 0.056
AACATAGC | -0.101

5 entries from above, as comma-separated lines:
Sequence,PBM E-score
AATTAGCT,0.0419
GCCCCCCC,-0.402
AGCGCGAA,0.191
CTGCGGAA,0.0709
GATATTCA,0.0204
